Structures are written as SMILES. This is one part of the list. Repeats in this data set agree poorly, so a single value says little.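 U2OS cells expressing ACE2 were combined with U2OS cells expressing full-length spike, and imaging quantified fusion as the fraction of nuclei displaying both cell types' fluorescent markers. Non-toxic compounds with a fusion z-score under -3, i.e., over three standard deviations below the plate's DMSO wells, are called inhibitory hits.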

For the assay, the system named is U2OS ACE2 x SARS-CoV-2 spike co-culture. Description: cell-cell fusion (fraction fused) z-score vs plate DMSO control; higher = more fusion. To be noted: 30 µM; 5 h; toxicity class: non-toxic, passed QC.
Consider `CC(=O)c1c(C)c2cnc(Nc3ccc(N4CCNCC4)cn3)nc2n(C2CCCC2)c1=O.Cl` [Palbociclib hydrochloride], for which the “cell-cell fusion (z-score)” value is inactive: 0.278. As to `CC(N)C12CC3CC(CC(C3)C1)C2.Cl` (stereo not given) [Rimantadine hydrochloride], the “cell-cell fusion (z-score)” value was inactive: 1.91.

In the case of `NC1(Cc2ccc(Cl)cc2)CCN(c2ncnc3[nH]ccc23)CC1`, the “cell-cell fusion (z-score)” value was inactive: -0.983. As for `Brc1c(Br)c(Br)c2[nH]cnc2c1Br`, the figure is inactive: 1.39; as for `CCc1cccc2c3c([nH]c12)C(CC)(CC(=O)O)OCC3` (stereo not given), inactive: 3.32. To `CCc1cccc2c3c([nH]c12)C(CC)(CC(=O)O)OCC3` (stereo not given) [Etodolac] belongs inactive: 2.99; to `OCc1ccccc1O[C@@H]1O[C@H](CO)[C@@H](O)[C@H](O)[C@H]1O`, inactive: -0.123; to `CC(C)=CCCC1(C)C=Cc2c(O)c3c(c(CC=C(C)C)c2O1)OC12C(CC4CC1C(C)(C)OC2(C/C=C(/C)C(=O)O)C4O)C3=O` (stereo not given), inactive: 2.26. Consider `CNC(=O)c1cnn(-c2nc(N)c3ncn([C@@H]4O[C@H](CO)[C@@H](O)[C@H]4O)c3n2)c1` [Regadenoson], for which the “cell-cell fusion (z-score)” value was inactive: 1.42. To `COc1ccc(-c2coc3cc(O)cc(O)c3c2=O)cc1` belongs inactive: 1.5; to `C[C@@H]1CCO[C@H]2Cn3cc(C(=O)NCc4ccc(F)cc4F)c(=O)c(O)c3C(=O)N12` [Dolutegravir], inactive: 1.89; to `O=C1NC(c2cccc([N+](=O)[O-])c2)=CCN1c1ccccc1O` [Icilin], inactive: 2.98.

For `N#Cc1cc2nc([O][Na])c([O][Na])nc2cc1[N+](=O)[O-]` [CNQX disodium], the “cell-cell fusion (z-score)” value was inactive: 3.48. For `c1ccc(CN(CC2=NCCN2)c2ccccc2)cc1`, the “cell-cell fusion (z-score)” value is inactive: 1.03. On to `CN(C)[C@@H]1C(O)=C(C(N)=O)C(=O)[C@@]2(O)C(O)=C3C(=O)c4c(O)ccc(Cl)c4[C@@H](O)[C@H]3C[C@@H]12.Cl`, for which the “cell-cell fusion (z-score)” value is inactive: 0.552. `Cc1ccc(-c2cc(C(F)(F)F)nn2-c2ccc(S(N)(=O)=O)cc2)cc1` [Celecoxib]: the “cell-cell fusion (z-score)” value is inactive: 1.48. With `Cc1ccc(-c2cc(C(F)(F)F)nn2-c2ccc(S(N)(=O)=O)cc2)cc1`, the “cell-cell fusion (z-score)” value is inactive: 2.36. To `O=C1CCc2ccc(OCCCCN3CCN(c4cccc(Cl)c4Cl)CC3)cc2N1` [Aripiprazole] belongs inactive: 3.82; to `Cc1cc(C(=O)NNCc2ccccc2)no1` [Isocarboxazid], inactive: 2.2; to `C[C@]12CC[C@H]3c4ccc(O)cc4CC[C@H]3[C@@H]1CC[C@H]2O` [Estradiol], inactive: 1.96.
